Laboratory results as given in patent US7201896B1, “IL6RIL6 chimera for the treatment of neurodegenerative diseases” (Yeda Research and Development Company Ltd., priority 1999, dated 2007).
At least one structure is not confirmed: it was looked up by name or label, or the drawing left a doubt.

System: Schwann cells derived from mouse sciatic nerve (MBP RNA)
Experiment: MBP RNA transcript level in cultured Schwann cells
Format: cell-based
Conditions: IL6RIL6 1.4 μg/ml; forskolin 20 μM

`C=C[C@@]1(C)CC(=O)[C@]2(O)[C@@]3(C)[C@@H](O)CCC(C)(C)[C@@H]3[C@H](O)[C@H](OC(C)=O)[C@@]2(C)O1` [forskolin] was tested, and the “induction of MBP gene expression (MBP RNA)” value was “increase in MBP RNA”.
